Reference: PubChem BioAssay AID651640 (Broad Institute, 2012)
About 6,000 (1.7%) of roughly 350,000 compounds were called active. The inconclusive results got no clear call from the source; some entries with a clear call stand among them for comparison. Rule as the data show it: active = CPE inhibition above about 20% (passing the limit was not always enough); inconclusive = no clear call, values can overlap the other calls; tested in BHK-21 cells. A structure can be active in one record and inactive in another.

Test: protection of cells from dengue 2 killing – plate reader, single concentration, primary screen (AID 651640);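 also: 0% = median of neutral control wells and 100% = median of positive control wells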
Conditions: DENV2-infected cells, cytopathic effect rescue, at 9.99 µM, stronger effect = higher value

SMILES	CPE inhibition
CC(C)CC#Cc1ccc2c(c1)O[C@H](CN(C)Cc1cncnc1)[C@@H](C)CN([C@H](C)CO)S2(=O)=O	active: 58.2%
CCCS(=O)(=O)N1CCn2c(nc3ccccc32)C1	inactive: -4.8%
COc1ccc(-c2ccccc2[C@H]2[C@@H](C#N)N(C(=O)C3CCCC3)[C@H]2CO)cc1	inactive: 6.31%
O=C(C[C@H]1CC[C@@H](NC(=O)C2CCC2)[C@H](CO)O1)NCc1ccccc1Cl	inactive: -5%
C[C@@H]1CCCCO[C@@H](CN(C)Cc2ccccc2)[C@@H](C)CN([C@H](C)CO)C(=O)c2cc(NC(=O)c3ccccc3)ccc2O1	active: 100%
O=S1(=O)N[C@@H](Cc2ccccc2)COc2cccc(N3CCCC3)c21	inconclusive: 26.3%
C[C@@H]1CN([C@H](C)CO)S(=O)(=O)c2ccc(C#CC3(O)CCCC3)cc2O[C@@H]1CN(C)C(=O)Cc1ccncc1	inactive: -4.21%
Cc1oc(-c2ccccc2F)nc1CS(=O)(=O)CC(=O)NCCN1CCCC1	inconclusive: 23.3%
C[C@@H]1CN([C@@H](C)CO)C(=O)Cc2cc(NC(=O)Cn3cnnn3)ccc2O[C@@H]1CN(C)C(=O)Nc1ccc2c(c1)OCO2	active: 23.4%
Cc1ccc(S(=O)(=O)Nc2ccc3c(c2)C(=O)N([C@@H](C)CO)C[C@H](C)[C@@H](CN(C)S(=O)(=O)c2c(C)noc2C)OCCCC[C@@H](C)O3)cc1	inactive: -11.4%
Cc1ccc(S(=O)(=O)N(C)C[C@H]2Oc3ccc(NC(=O)Cc4cn(C)c5ccccc45)cc3CC(=O)N([C@H](C)CO)C[C@@H]2C)cc1	inactive: 18.9%
COc1cccc(CN2CCN(C(=O)CCc3nnc(C4CCCCC4)o3)CC2=O)c1	inconclusive: 38.8%
Cc1ccc(S(=O)(=O)NC(C(=O)N2CCOCCOCCOCCOCC2)C(C)C)cc1 (stereo not drawn)	inconclusive: 25.1%
CC(C)OC(=O)N(C)C[C@@H]1OCc2cn(nn2)CCCC(=O)N([C@@H](C)CO)C[C@H]1C	active: 35.9%
COc1ccccc1/C=N/NC(=O)c1ccc(Br)cc1	inactive: 10.2%
O=C(COC(=O)C1CC2CCCC(C1)C2=O)NC(=O)c1ccc(OC(F)F)cc1 (stereo not drawn)	inconclusive: 20.6%
CCN(c1ccccc1)S(=O)(=O)c1ccc(C(=O)N2CCN(c3ccccc3F)CC2)cc1	active: 52.7%
CCOC(=O)N1CCN(C(=O)c2cc3n(n2)C(C(F)(F)F)CC(c2ccc4c(c2)OCO4)N3)CC1 (stereo not drawn)	inconclusive: 22.5%
Cc1ccc(S(=O)(=O)Nc2ccc3c(c2)C(=O)N([C@@H](C)CO)C[C@@H](C)[C@@H](CN(C)CC2CC2)OCCCC[C@@H](C)O3)cc1	active: 62.7%
O=C(N[C@@H]1CC[C@@H](CCn2cc(-c3ccccn3)nn2)O[C@@H]1CO)c1ccncc1	inconclusive: 31.5%
Cc1noc(C)c1NC(=O)Nc1ccc2c(c1)C(=O)N([C@H](C)CO)C[C@H](C)[C@H](CN(C)C(=O)Nc1ccccc1)OCCCC[C@H](C)O2	active: 68.4%
COc1ccc(-n2c(Cn3c(=O)sc4ccccc43)nnc2SC)cc1	inconclusive: 27%

SMILES	CPE inhibition
COC(=O)c1ccc(COC(=O)CNC(=O)C2CCCCC2)cc1	inconclusive: 26.6%
Cc1cccc(Nc2ccc3nonc3c2[N+](=O)[O-])c1C	inconclusive: 28%
O=C(C[C@@H]1C=C[C@@H](NC(=O)Cc2ccccn2)[C@@H](CO)O1)NCCc1ccncc1	inactive: 6.13%
C[C@@H]1CCCCO[C@H](CN(C)Cc2ccc(C(=O)O)cc2)[C@H](C)CN([C@@H](C)CO)C(=O)c2cc(NS(=O)(=O)c3ccc(Cl)cc3)ccc2O1	inconclusive: 23.5%
Cc1nnc(NC(=O)c2ccc(S(=O)(=O)N3CCCCC3C)cc2)o1 (stereo not drawn)	inactive: -5.2%
CC1=C(C(=O)OCc2ccccc2)C(c2ccc(-c3ccccc3)cc2)NC(=O)N1CCCCCC(=O)O (stereo not drawn)	inconclusive: 30.5%
Cc1noc(C)c1NC(=O)Nc1ccc2c(c1)C(=O)N([C@H](C)CO)C[C@H](C)[C@H](CN(C)C(=O)NC(C)C)OCCCC[C@@H](C)O2	inconclusive: 30.5%
COc1ccc(S(=O)(=O)Nc2cccc(S(=O)(=O)NC3=NCCC3)c2)cc1[N+](=O)[O-]	inconclusive: 72%
CC(C)c1ccc(NC(=O)Nc2nc(C(N)CCc3ccccc3)cs2)cc1 (stereo not drawn)	active: 36.8%
CN(Cc1ccccc1)C(c1cc2ccccc2o1)c1nnnn1C(C)(C)C (stereo not drawn)	inconclusive: 24.3%
O=C(c1ccc2c(c1)OCO2)N1C[C@@H]2N[C@H](C1)C2c1ccc(-c2cccnc2)cc1 (stereo partly drawn)	inconclusive: 20.9%
O=C(CCc1nnc(CCCc2ccccc2)o1)N1CCCCCC1	inconclusive: 40.2%
O=C(NCCc1ccccc1)c1cnc2sccn2c1=O	inconclusive: 24.1%
O=S(=O)(NCc1ccc(F)cc1)c1ccc(Br)cc1Br	inconclusive: 75.1%
O=C(NCc1ccc(F)cc1F)[C@@H]1CCCN1C(=O)[C@@H]1CCCN1C(=O)c1cccc2ccccc12	inconclusive: 38.9%
Cn1c(N)c(C(=O)CSc2nc(C3CC3)n(-c3ccccc3)n2)c(=O)n(C)c1=O	inconclusive: 22%
O=c1c2cc(Br)ccc2[nH]c(=S)n1Cc1ccccn1	active: 31.3%
C[C@@H]1CCCCO[C@@H](CN(C)S(=O)(=O)c2cccs2)[C@H](C)CN([C@H](C)CO)C(=O)c2cc(NC(=O)Nc3ccccc3)ccc2O1	active: 60.3%
CC(=O)N1[C@H](CO)[C@H](c2ccccc2)[C@H]1CN(CC1CCC1)C(=O)CN(C)C	inactive: -3.65%
N#C[C@H]1[C@@H](c2ccccc2C2=CCCC2)[C@H](CO)N1C(=O)C1CCCC1	active: 41.1%
Cc1ccc(C2(c3noc(CN(C)Cc4ccccn4)n3)CCCC2)cc1	inconclusive: 32.7%
CN1CCN(C(=O)C[C@H]2CC[C@@H]3[C@H](COc4ccc(NC(=O)C5CCCC5)cc4C(=O)N3C)O2)CC1	inconclusive: 32.8%

SMILES	CPE inhibition
C[C@H]1CN([C@@H](C)CO)C(=O)c2cc(C#CC3CC3)cnc2O[C@H]1CN(C)C	inactive: -3.19%
COC(=O)[C@@](C)(O)C1(C(=O)SC(C)(C)C)CC1	active: 130%
CCCCCCN1C[C@@H](O)[C@H](n2cc(-c3ccc(F)cc3)nn2)C[C@@H]1c1ccc(C)cc1	active: 71.7%
CCOC(=O)Nc1ccc2c(c1)N(C(=O)OCCN(C)C)c1ccccc1CC2	inconclusive: 21.1%
C/C=C/c1ccc(C2[C@@H]3CN(S(=O)(=O)c4cccc(OC)c4)C[C@H]2N3)cc1 (stereo partly drawn)	inconclusive: 21.3%
O=C(CC(=O)NCc1ccc(Cl)cc1)NCc1ccccc1	inactive: 4.03%
CCNC(=O)[C@H]1[C@H](CO)[C@H]2Cn3c(ccc(-c4ccccc4OC)c3=O)[C@H]2N1CC	inconclusive: 21.1%
COc1ccc(S(=O)(=O)Nc2ccc3c(c2)C(=O)N([C@H](C)CO)C[C@@H](C)[C@@H](CN(C)S(=O)(=O)c2cn(C)cn2)OCCCC[C@H](C)O3)cc1	active: 53.2%
COCC(=O)N(C)C[C@@H]1Oc2ncc(-c3ccccc3OC)cc2C(=O)N([C@H](C)CO)C[C@H]1C	inconclusive: 23.2%
O=C(C[n+]1cnn(CC(=O)c2ccc(Cl)cc2Cl)c1)c1ccc([N+](=O)[O-])cc1	inconclusive: 50.4%
CC(=O)c1ccc(OCc2cc(C(=O)NCCN3CCCC(O)C3)no2)cc1 (stereo not drawn)	inactive: -2.6%
COc1ccccc1C#Cc1ccc2c(c1)O[C@@H](CN(C)Cc1cccnc1)[C@H](C)CN([C@H](C)CO)S2(=O)=O	inactive: -22.3%
CCCn1cnc2c(SCCc3ccccc3)nc(N)nc21	inactive: 1.59%
CC=Cc1ccc2n(c1=O)C[C@@H]1[C@@H](CO)[C@H](C(=O)NC3CCC3)N(S(C)(=O)=O)[C@H]21 (mixture of isomers)	inconclusive: 23.1%
CCOC(=O)[C@H]1[C@H]2COc3ccc(Cl)cc3[C@@H]2N2C(=O)CN(CC3CCCO3)C(=O)[C@@]12C (stereo partly drawn)	inconclusive: 63.2%
CCN(CC(=O)NCc1cccs1)C(=O)c1cc(S(=O)(=O)N2CCCCC2)ccc1Cl	inconclusive: 26.5%
Cc1ccc(S(=O)(=O)Nc2ccccc2C(=O)N2CCCC2)cc1	inconclusive: 96%
Cc1ccc(NC(=S)N(CCN(C)C)Cc2cc3cccc(C)c3[nH]c2=O)cc1	inconclusive: 40.8%
O=C(CSc1cccc[n+]1[O-])Nc1cc2c(cc1Cl)C(=O)c1ccccc1C2=O	inconclusive: 31.4%
OC(c1ccccc1)(c1ccccc1)C1CCN(CCCOc2cccc(F)c2)CC1	active: 56.4%
O=C(O)c1ccc(Nc2nc3ccc(Cl)cc3[nH]2)cc1	inconclusive: 33.3%
COc1ccccc1C1CC(=O)Oc2cc(O)ccc21 (stereo not drawn)	inconclusive: 25.1%

SMILES	CPE inhibition
COc1ccc2c(=O)c3ccccc3oc2c1	inconclusive: 48.2%
Cc1noc(C)c1NC(=O)Nc1ccc2c(c1)CC(=O)N([C@H](C)CO)C[C@@H](C)[C@@H](CN(C)Cc1ccc(-c3ccccc3)cc1)O2	inconclusive: 30.9%
COc1cccc(CNC(=O)C[C@H]2C=C[C@@H](NC(=O)C3CC3)[C@@H](CO)O2)c1	inactive: -3.11%
CCc1nn(CC(=O)N2CCC(C(N)=O)CC2)c(=O)c2cc3occc3n12	inconclusive: 42.9%
COc1ccc(-c2csc(C(C)(O)c3ccncc3)n2)cc1OC (stereo not drawn)	inconclusive: 24.8%
O=C(Nc1ccc2c(c1)OCO2)c1cc(C2CCCCN2C(=O)OCCF)on1 (stereo not drawn)	active: 20.3%
C[C@@H]1CN([C@@H](C)CO)C(=O)c2cc(NC(=O)c3ccncc3)ccc2O[C@@H](C)CCCCO[C@H]1CN(C)C(=O)Nc1ccccc1	inconclusive: 37.3%
COc1ccccc1C(C(=O)c1ccccc1)c1ccc2ccccc2c1 (stereo not drawn)	inconclusive: 24.6%
COc1ccccc1C1=NC(c2ccc(C)cc2)N=C1C (stereo not drawn)	inconclusive: 25.7%
COc1cccc(C(=O)NCC(=O)N/N=C/c2cccc(OC(=O)c3ccc([N+](=O)[O-])cc3)c2)c1	inactive: -0.711%
C[C@H](O)C#Cc1ccc2c(c1)O[C@H](CN(C)C(=O)CN(C)C)[C@H](C)CN([C@H](C)CO)S2(=O)=O	active: 42.2%
COc1ccc(Nc2ccccc2NC(=O)c2ccccc2Br)cc1	inactive: 2.08%
C[C@@H]1CCCCO[C@@H](CN(C)Cc2ccc(C(=O)O)cc2)[C@@H](C)CN([C@@H](C)CO)C(=O)c2cc(NC(=O)Nc3ccc(C(F)(F)F)cc3)ccc2O1	active: 21.1%
CCN1CCN(C(=O)C23CCC(C)(C(=O)C2Br)C3(C)C)CC1 (stereo not drawn)	inconclusive: 48.9%
CC(Sc1nnnn1C1CC1)C(=O)N1c2ccccc2NC(=O)C1(C)C (stereo not drawn)	inconclusive: 71.2%
CC(C)C[C@H]1CN(CCCC[C@H]2CNC(=O)C(=O)N2CCC2CCCCC2)C(=O)C(=O)N1CC1CCCCC1	inconclusive: 26.9%
CCCC(=O)Nc1ccc2c(c1)C(=O)N(C)C[C@H](OC)[C@H](C)CN(Cc1ccc(-c3ccccn3)cc1)[C@@H](C)CO2	active: 28.3%
CCCNC(=O)[C@@H]1c2ccccc2C(=O)N(Cc2ccccc2OC)[C@H]1c1ccc(CO)cc1	active: 33.9%
CC(=O)N1CCCCN2[C@@H](CO)[C@H](c3ccc(C#Cc4ccccc4F)cc3)[C@@H]2C1	active: 22.9%
CN(C)C(=O)C[C@@H]1C=C[C@@H](NC(=O)Nc2cccc(F)c2)[C@@H](CO)O1	inactive: 5.11%
O=C(c1ccccc1F)N1CC(=O)N2[C@H](CO)[C@@H](c3ccc(C#Cc4ccc(F)cc4)cc3)[C@H]2C1	inconclusive: 31%
C[C@@H]1COc2cccc(NC3CC3)c2S(=O)(=O)N1	inactive: 11.6%

As entered above:
Value for CCNC(=O)[C@H]1[C@H](CO)[C@H]2Cn3c(ccc(-c4ccccc4OC)c3=O)[C@H]2N1CC under CPE inhibition: inconclusive: 21.1%
Value for O=C(O)c1ccc(Nc2nc3ccc(Cl)cc3[nH]2)cc1 under CPE inhibition: inconclusive: 33.3%
Value for COc1ccccc1C1CC(=O)Oc2cc(O)ccc21 (stereo not drawn) under CPE inhibition: inconclusive: 25.1%
Value for Cn1c(N)c(C(=O)CSc2nc(C3CC3)n(-c3ccccc3)n2)c(=O)n(C)c1=O under CPE inhibition: inconclusive: 22%
Value for CCOC(=O)N1CCN(C(=O)c2cc3n(n2)C(C(F)(F)F)CC(c2ccc4c(c2)OCO4)N3)CC1 (stereo not drawn) under CPE inhibition: inconclusive: 22.5%
